Laboratory results as given in the M2OR odorant receptor database.
This is a selection; strong and weak results do not stand in their true shares. Calls are pooled over several reports, among them a noisy single-well screen. The list shows a part of the results.

The chains behind the UniProt entries cited, without tags or fusion partners. A line that says so, or that is headed by a name, gives the form on record, which may keep a tag or linker.
UniProt Q8VG26, as listed by the source: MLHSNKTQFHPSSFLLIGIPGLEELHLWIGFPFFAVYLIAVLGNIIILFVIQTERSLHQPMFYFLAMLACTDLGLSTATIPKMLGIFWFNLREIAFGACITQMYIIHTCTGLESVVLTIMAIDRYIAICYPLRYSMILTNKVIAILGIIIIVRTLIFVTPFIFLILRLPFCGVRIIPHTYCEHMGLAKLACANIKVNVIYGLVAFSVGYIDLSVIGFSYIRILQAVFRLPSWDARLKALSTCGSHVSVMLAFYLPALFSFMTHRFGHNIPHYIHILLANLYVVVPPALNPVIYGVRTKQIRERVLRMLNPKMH
UniProt Q8VG28, as listed by the source: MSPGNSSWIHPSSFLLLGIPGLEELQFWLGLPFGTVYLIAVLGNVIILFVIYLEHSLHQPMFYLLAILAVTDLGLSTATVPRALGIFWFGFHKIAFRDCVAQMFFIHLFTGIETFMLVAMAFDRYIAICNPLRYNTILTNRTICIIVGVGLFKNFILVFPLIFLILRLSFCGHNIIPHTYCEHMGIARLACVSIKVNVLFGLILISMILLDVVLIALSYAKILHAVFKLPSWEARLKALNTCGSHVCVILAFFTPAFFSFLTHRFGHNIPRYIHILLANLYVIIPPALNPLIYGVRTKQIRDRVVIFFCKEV

How the values were obtained:
Conditions in all cases: stereoisomer not certain
UniProt Q8VGC6 = target: T1, UniProt Q8VGC6
T1 sequence (whole entry): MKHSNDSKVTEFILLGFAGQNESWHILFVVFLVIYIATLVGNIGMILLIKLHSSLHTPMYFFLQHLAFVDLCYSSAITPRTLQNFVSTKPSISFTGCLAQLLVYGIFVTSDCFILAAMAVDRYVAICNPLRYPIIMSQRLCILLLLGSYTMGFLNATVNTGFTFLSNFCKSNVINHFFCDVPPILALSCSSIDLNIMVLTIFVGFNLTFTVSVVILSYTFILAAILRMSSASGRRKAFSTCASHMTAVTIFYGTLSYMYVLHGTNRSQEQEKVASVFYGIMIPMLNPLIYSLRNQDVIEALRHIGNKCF
How it was run: (§1)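 Values were gathered from published papers (main text and supplementary material), with extra details requested from the original authors when needed, and checked for typos and inconsistencies. Each receptor–molecule pair is called responsive (active) if the original authors judged the measured signal statistically different from baseline, and non-responsive (inactive) otherwise. Assay methods varied by source, often transient mammalian cell-line luciferase assays. Recorded details include cell line, G-protein, co-transfected protein and tags.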

UniProt Q8VFG6 = target: T2, UniProt Q8VFG6
T2 sequence (whole entry): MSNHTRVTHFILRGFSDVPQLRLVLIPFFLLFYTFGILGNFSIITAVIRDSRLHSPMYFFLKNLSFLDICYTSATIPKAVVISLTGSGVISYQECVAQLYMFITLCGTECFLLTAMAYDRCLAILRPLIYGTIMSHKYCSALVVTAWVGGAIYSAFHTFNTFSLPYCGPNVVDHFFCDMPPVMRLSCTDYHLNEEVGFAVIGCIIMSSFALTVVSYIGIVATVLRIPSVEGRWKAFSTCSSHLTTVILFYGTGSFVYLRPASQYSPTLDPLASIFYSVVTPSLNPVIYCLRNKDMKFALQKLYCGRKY
How it was run: as §1

UniProt Q8VFM8 = target: T3, UniProt Q8VFM8
T3 sequence (whole entry): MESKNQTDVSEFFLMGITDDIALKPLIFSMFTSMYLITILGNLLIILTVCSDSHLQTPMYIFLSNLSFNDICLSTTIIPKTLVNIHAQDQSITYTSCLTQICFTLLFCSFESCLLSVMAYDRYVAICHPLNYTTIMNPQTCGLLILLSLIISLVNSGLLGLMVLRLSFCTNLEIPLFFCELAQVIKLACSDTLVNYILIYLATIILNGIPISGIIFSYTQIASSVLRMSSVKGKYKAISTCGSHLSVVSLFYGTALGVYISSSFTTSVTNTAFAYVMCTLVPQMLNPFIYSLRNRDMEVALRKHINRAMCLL
How it was run: as §1

UniProt Q8VFP5 = target: T4, UniProt Q8VFP5
T4 sequence (whole entry): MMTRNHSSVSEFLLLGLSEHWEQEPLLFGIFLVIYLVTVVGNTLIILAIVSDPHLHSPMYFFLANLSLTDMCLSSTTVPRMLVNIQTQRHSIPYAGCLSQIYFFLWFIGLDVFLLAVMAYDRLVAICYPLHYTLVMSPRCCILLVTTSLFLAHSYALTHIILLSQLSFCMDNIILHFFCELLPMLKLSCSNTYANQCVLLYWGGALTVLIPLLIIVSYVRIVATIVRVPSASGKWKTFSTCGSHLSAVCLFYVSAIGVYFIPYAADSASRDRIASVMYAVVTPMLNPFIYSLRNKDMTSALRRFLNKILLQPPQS
How it was run: as §1

UniProt Q8VFZ6 = target: T5, UniProt Q8VFZ6
T5 sequence (whole entry): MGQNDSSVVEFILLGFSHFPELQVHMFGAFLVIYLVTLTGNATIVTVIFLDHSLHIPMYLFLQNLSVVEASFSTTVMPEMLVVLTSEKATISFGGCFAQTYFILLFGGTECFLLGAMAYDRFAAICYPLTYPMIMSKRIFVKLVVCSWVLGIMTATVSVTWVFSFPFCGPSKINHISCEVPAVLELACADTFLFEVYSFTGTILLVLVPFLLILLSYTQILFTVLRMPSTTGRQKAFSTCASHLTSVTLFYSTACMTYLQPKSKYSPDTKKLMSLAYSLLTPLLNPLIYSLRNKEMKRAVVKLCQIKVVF
How it was run: as §1

UniProt Q8VG01 = target: T6, UniProt Q8VG01
T6 sequence (whole entry): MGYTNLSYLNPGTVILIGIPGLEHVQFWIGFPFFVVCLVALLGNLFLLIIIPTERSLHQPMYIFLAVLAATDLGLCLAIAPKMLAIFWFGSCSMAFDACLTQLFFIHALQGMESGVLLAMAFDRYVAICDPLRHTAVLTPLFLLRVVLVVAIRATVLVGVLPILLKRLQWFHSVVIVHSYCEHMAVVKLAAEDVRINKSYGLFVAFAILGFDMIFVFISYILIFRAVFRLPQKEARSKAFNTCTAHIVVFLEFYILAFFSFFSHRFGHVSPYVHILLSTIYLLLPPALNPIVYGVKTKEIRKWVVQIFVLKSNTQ
How it was run: as §1

UniProt Q8VG22 = target: T7, UniProt Q8VG22
T7 sequence (whole entry): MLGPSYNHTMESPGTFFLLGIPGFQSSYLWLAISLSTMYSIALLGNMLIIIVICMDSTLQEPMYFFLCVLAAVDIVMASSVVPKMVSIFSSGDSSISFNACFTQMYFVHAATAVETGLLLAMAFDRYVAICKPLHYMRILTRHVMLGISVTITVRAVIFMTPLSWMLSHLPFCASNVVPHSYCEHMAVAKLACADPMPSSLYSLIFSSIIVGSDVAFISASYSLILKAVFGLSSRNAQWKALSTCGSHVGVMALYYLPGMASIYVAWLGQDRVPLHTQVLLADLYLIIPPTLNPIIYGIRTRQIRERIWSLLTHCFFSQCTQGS
How it was run: as §1

UniProt Q8VG27 = target: T8, UniProt Q8VG27
T8 sequence (whole entry): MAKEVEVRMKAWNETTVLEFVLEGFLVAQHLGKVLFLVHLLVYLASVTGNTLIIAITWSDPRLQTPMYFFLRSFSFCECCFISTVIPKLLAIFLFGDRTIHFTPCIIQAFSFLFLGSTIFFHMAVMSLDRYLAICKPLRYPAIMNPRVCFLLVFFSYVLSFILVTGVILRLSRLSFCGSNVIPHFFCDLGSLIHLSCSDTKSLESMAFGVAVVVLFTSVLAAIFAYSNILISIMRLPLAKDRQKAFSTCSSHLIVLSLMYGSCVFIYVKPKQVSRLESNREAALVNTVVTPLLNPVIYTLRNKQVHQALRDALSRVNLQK
How it was run: as §1

UniProt Q8VG49 = target: T9, UniProt Q8VG49
T9 sequence (whole entry): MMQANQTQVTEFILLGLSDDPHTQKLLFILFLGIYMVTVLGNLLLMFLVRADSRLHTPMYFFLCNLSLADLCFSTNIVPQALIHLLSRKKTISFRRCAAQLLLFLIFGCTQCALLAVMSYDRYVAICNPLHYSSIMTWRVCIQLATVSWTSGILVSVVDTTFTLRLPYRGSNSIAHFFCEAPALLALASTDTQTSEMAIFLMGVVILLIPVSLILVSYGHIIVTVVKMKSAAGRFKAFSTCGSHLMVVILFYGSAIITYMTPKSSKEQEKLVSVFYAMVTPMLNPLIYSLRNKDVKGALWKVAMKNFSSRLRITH
How it was run: as §1

UniProt Q8VG53 = target: T10, UniProt Q8VG53
T10 sequence (whole entry): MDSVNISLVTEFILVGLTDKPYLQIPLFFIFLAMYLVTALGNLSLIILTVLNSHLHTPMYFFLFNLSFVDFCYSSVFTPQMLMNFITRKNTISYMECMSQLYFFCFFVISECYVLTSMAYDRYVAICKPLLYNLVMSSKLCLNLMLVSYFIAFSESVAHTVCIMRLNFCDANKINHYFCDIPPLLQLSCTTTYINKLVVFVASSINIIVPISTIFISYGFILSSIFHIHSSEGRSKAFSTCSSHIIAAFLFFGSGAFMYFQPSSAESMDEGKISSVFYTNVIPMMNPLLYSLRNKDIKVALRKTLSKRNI
How it was run: as §1

UniProt Q8VG64 = target: T11, UniProt Q8VG64
T11 sequence (whole entry): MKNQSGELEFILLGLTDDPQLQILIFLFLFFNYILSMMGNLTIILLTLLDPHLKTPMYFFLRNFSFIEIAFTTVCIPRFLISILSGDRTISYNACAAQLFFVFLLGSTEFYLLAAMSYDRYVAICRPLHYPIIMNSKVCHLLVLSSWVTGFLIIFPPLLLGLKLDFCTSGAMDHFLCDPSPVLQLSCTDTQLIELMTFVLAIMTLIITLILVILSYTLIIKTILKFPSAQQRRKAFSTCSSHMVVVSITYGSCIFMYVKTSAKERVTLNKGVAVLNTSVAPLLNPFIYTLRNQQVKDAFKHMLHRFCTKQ
How it was run: as §1

UniProt Q8VG77 = target: T12, UniProt Q8VG77
T12 sequence (whole entry): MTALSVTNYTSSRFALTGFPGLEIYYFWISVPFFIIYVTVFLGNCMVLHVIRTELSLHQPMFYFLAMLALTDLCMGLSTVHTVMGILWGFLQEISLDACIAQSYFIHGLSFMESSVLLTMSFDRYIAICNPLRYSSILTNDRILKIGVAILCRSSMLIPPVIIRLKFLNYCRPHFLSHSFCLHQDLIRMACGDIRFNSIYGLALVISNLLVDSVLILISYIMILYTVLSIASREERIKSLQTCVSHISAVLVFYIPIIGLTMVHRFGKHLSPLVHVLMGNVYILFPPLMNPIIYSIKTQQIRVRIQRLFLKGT
How it was run: as §1

UniProt Q8VG96 = target: T13, UniProt Q8VG96
T13 sequence (whole entry): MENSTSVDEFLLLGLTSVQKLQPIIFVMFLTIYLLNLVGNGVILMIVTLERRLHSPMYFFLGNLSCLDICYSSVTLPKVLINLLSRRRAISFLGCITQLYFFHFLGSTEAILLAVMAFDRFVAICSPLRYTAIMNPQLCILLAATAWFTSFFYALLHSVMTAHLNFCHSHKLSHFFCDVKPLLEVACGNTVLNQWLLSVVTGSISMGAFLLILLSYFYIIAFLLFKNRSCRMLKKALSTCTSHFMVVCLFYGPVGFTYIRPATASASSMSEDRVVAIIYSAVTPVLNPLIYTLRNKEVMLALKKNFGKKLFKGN
How it was run: as §1

UniProt Q8VGB9 = target: T14, UniProt Q8VGB9
T14 sequence (whole entry): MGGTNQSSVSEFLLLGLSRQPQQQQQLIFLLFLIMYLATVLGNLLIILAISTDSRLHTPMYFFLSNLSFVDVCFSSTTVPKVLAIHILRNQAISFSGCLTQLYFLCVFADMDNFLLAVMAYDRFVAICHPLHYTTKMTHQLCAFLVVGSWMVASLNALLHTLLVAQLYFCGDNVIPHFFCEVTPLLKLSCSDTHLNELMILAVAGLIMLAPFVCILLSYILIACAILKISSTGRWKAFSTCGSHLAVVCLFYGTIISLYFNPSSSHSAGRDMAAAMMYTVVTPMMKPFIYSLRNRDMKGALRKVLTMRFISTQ
How it was run: as §1

UniProt Q8VGD7 = target: T15, UniProt Q8VGD7
T15 sequence (whole entry): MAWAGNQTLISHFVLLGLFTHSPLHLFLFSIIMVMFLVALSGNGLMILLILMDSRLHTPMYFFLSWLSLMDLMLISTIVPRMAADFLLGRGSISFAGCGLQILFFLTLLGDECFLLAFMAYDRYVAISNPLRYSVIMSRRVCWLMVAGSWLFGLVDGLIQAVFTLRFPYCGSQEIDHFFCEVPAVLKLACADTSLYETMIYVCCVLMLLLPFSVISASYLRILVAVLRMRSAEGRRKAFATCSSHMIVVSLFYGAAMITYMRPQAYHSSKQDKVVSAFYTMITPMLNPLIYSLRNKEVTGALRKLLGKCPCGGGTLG
How it was run: as §1

UniProt Q8VG26 = target: UniProt Q8VG26
How it was run: as §1

UniProt Q8VG28 = target: UniProt Q8VG28
How it was run: as §1

Measured: odorant receptor agonist call

CC1CCC(C(C)C)C(O)C1 (stereo unspecified)
inactive: UniProt Q8VGC6

CC(C)(O)CCCC1=CCC(C=O)CC1 (stereo unspecified)
not listed: UniProt Q8VG26 | UniProt Q8VG28
inactive: all other assays above

CCCCCCCCC=O
inactive: all assays above

CC(C)C=O
inactive: UniProt Q8VFM8 | UniProt Q8VFP5 | UniProt Q8VG01 | UniProt Q8VG27 | UniProt Q8VG53 | UniProt Q8VG64 | UniProt Q8VGB9 | UniProt Q8VGC6
